# Source: the supplement of paper PMC12819154, “High-throughput peptide-centric local stability assay extends protein–ligand identification to membrane proteins, tissues and bacteria” (Nature Structural & Molecular Biology, 2025)
# Only a part is listed here, and it is no random draw. Most values lie at the level of the controls, where differences are scatter.
# Molecular target: T1, UniProt P0A9Q9
# T1 sequence (whole entry): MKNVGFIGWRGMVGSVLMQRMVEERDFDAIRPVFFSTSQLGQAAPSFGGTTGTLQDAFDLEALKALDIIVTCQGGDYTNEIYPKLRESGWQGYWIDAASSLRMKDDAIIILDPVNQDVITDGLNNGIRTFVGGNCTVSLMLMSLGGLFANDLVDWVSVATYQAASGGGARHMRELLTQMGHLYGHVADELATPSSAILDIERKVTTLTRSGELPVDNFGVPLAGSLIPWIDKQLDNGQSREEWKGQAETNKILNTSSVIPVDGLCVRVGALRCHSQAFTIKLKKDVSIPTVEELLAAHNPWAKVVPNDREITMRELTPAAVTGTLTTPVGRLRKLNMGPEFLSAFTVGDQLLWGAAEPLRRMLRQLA
# Assay: log2 fold change of tryptic peptide abundance, ligand vs vehicle (limited proteolysis) (log2 ratio); higher = more trypsin-susceptible (destabilized)
# Conditions: peptide sequence: NVGFIGWR; peptide start residue: 3; ligand concentration: 5 mM; sample: E. coli desalted lysate; replicate design: treated before aliquoting
# Description: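 HT-PELSA: desalted E. coli K-12 BW25113 lysate (with 12 mM MgCl2) incubated with 5 mM ATP (pH 7) or water for 30 min at 25 C, then a 4 min trypsin pulse at 22 C. Peptides were quantified by DIA-MS (4 replicates). Value is the peptide log2 fold change (treated/control); negative = stabilized. Scale: negative = ligand-stabilized region.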
# 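Further: lysate desalted by size exclusion to strip endogenous ATP, peptide intensities built from DIA-NN precursor signals, and peptides missing any value discarded before comparison.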
row,Structure (SMILES),log2 fold change
1,Nc1ncnc2c1ncn2[C@@H]1O[C@H](COP(=O)(O)OP(=O)(O)OP(=O)(O)O)[C@@H](O)[C@H]1O [adenosine 5'-triphosphate],-0.31
